Experimental data as given in paper PMC10541425, “Targeting Toll-like receptor-driven systemic inflammation by engineering an innate structural fold into drugs” (Nature Communications, 2023).
No constants are given. Whether binding was seen depends on the method and setting. Some entries that bind do so weakly or less than the wild type. For part of these data: Sequences can lack the tags named with a protein.

Tests used:
[1] = target: T1, Human His-tag CD14 (hCD14), glycosylated (human) (UniProt P08571); test: MST; RED-NHS-labelled glycosylated hCD14 (5 µL of 21 nM) mixed 1:1 with 0.03–1000 µM peptide, 10 mM Tris pH 7.4, with 150 mM NaCl; Monolith NT.115, standard capillaries; both purified
T1 sequence (chain, glycosylated; labelled with the Monolith NT Protein labeling kit RED – NHS): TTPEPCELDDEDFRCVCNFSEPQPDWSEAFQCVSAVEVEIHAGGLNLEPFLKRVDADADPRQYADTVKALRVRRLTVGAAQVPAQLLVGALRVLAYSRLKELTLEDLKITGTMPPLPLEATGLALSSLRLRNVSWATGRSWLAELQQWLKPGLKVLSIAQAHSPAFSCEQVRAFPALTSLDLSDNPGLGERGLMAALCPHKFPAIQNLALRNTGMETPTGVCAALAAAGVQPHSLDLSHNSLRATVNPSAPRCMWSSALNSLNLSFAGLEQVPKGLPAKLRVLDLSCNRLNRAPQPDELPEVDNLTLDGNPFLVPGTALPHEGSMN

[2] = target: T2, Deglycosylated hCD14 (human) (UniProt P08571); test: HDX-MS; deglycosylated CD14 ([…] in 20 mM Tris, 100 mM NaCl, 10% glycerol, pH 7.5) with or without peptide, molar ratio 1:10 (CD14:ligand); labelling 0, 30, 300, 3000, 9000 s at 20 °C in 25 mM Tris D2O buffer; online pepsin digestion; both purified
T2 sequence (chain, deglycosylated with PNGase F): T1 sequence (chain, glycosylated; labelled with the Monolith NT Protein labeling kit RED – NHS)

[3] = target: T1, Human His-tag CD14 (hCD14), glycosylated (human); test: MST; RED-NHS-labelled glycosylated hCD14 (5 µL of 21 nM) mixed 1:1 with 0.03–1000 µM peptide, 10 mM Tris pH 7.4, without NaCl; Monolith NT.115, standard capillaries; both purified

Measured: binding

HVFRLKKWIQKVIDQFGE [HVF18]
binds: all assays above
